Read-outs that look alike come from different tables or passages of the source. Results are given in words; binding and its absence hold for the method and conditions named. For some assays here: Binding seen in cells or lysates may run through a third protein. Some binding calls cover weakened binding; strength is not graded here. For some assays here: Where a sequence is shown, tags or fusion partners need not be part of it. Blank lines part the entries; values can stand above or below the molecule they belong to.
Columns and labels:
Dpb2-TAP (budding yeast) [1] = target: T1, Dpb2-TAP (budding yeast) (UniProt P24482); assay: co-IP; TAP- or FLAG-tagged bait immunoprecipitated from extracts of ground budding yeast cells (G1, S phase 30 min, or 0.2 M HU 90 min; also in checkpoint mutants sml1Δ rad53Δ, sml1Δ mec1Δ, mrc1Δ, tof1Δ, ctf18Δ, dcc1Δ and in mms21-CH); washes from 100 to 700 mM potassium acetate; immunoblotting
T1 sequence: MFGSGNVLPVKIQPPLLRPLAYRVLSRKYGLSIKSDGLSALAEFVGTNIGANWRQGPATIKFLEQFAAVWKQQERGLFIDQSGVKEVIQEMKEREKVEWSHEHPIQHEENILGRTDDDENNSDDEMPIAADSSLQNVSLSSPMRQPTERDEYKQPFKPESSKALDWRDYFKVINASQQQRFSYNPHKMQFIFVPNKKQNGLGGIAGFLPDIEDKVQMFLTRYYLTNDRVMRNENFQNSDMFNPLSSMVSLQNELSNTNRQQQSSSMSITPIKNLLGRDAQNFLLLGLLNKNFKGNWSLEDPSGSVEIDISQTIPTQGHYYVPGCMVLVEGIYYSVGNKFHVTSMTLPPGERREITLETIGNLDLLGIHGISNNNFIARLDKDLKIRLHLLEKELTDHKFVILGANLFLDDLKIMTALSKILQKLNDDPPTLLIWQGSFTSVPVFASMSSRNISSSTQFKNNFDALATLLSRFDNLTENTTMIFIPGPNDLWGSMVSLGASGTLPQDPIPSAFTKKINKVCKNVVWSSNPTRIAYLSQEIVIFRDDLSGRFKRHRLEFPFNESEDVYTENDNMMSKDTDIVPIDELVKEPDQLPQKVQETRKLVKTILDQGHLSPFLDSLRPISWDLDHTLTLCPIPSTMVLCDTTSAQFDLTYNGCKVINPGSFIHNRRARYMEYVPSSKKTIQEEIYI

Smc5-TAP (budding yeast) = target: T2, Smc5-TAP (budding yeast) (UniProt Q08204); assay: as above
T2 sequence: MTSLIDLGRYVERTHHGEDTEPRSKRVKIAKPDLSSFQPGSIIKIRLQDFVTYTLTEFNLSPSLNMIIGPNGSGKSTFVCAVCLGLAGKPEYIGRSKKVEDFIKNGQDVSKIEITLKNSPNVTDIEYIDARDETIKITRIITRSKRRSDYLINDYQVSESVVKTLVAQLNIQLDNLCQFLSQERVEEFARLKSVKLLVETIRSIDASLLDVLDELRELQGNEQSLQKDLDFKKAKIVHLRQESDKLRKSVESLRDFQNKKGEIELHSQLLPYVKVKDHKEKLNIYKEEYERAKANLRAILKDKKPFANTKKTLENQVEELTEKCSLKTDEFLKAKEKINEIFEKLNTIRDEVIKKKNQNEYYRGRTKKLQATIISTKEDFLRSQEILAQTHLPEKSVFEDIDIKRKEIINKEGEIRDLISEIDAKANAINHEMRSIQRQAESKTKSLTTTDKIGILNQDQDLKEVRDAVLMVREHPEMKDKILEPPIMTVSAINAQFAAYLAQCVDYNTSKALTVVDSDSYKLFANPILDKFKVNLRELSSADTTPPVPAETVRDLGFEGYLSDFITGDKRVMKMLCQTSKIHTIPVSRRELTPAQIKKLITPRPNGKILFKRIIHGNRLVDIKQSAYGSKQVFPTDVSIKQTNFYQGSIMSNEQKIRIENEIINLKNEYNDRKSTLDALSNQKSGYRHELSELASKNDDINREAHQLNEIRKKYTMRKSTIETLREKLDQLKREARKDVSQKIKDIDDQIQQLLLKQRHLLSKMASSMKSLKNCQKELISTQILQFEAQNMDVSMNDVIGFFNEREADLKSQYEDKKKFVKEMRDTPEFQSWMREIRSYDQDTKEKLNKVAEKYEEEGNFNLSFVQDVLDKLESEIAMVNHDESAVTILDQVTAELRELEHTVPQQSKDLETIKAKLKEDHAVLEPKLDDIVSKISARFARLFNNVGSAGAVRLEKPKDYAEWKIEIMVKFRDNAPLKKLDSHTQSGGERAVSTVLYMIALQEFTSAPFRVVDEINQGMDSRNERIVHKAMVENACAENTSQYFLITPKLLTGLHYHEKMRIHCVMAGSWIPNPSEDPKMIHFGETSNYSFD

[2] = target: T3, Mms21-5FLAG (budding yeast) (UniProt P38632); assay: as above
T3 sequence: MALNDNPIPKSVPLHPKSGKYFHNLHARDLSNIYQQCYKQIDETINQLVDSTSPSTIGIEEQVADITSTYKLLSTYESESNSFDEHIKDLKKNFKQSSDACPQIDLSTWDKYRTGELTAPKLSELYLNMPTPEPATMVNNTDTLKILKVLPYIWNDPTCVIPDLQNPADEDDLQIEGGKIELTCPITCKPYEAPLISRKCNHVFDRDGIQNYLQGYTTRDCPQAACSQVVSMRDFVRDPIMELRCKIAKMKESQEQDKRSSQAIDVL

Dpb2-TAP (budding yeast) [3] = target: T1, Dpb2-TAP (budding yeast); assay: as above; remark: listed apart in the source
[4] = target: T4, Dpb2 (two-hybrid) (budding yeast) (UniProt P24482); assay: two-hybrid; Gal4-based, pGADT7 and pGBKT7 derivatives in strain PJ69-4A; growth on SC lacking Trp, Leu, His (weak) or Trp, Leu, His, Ade (strong selection); serial dilutions
T4 sequence: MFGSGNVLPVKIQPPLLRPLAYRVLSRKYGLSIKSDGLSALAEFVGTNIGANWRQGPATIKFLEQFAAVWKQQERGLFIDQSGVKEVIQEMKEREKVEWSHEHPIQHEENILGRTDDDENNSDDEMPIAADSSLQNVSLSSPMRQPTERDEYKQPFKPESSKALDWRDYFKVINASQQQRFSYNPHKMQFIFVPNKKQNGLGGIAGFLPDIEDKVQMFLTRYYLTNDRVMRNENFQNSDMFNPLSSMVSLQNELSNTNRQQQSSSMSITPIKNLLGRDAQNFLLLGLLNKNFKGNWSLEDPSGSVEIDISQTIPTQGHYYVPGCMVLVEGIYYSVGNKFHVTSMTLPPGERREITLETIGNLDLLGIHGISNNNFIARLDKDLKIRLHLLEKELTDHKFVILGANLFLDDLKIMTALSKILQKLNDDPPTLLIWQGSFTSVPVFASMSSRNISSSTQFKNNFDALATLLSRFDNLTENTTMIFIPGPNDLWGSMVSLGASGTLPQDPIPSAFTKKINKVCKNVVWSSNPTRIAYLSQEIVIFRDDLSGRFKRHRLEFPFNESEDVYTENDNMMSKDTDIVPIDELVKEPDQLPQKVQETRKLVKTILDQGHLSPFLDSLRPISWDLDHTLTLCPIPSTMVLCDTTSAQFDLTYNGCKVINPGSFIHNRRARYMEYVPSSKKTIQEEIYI

Molecule: Pol2 with mutations in the SIM motif (pol2-sim), from the endogenous POL2 locus (from UniProt P21951 1-2222)
binding (Dpb2-TAP (budding yeast) [1]): binds

Molecule: Pol2, the catalytic subunit of DNA polymerase ε (from UniProt P21951 1-2222)
binding [2]: binds
binding (Dpb2-TAP (budding yeast) [1]): binds

B1: Mms21-5FLAG (protein, UniProt P38632 1-267)
chain: MALNDNPIPKSVPLHPKSGKYFHNLHARDLSNIYQQCYKQIDETINQLVDSTSPSTIGIEEQVADITSTYKLLSTYESESNSFDEHIKDLKKNFKQSSDACPQIDLSTWDKYRTGELTAPKLSELYLNMPTPEPATMVNNTDTLKILKVLPYIWNDPTCVIPDLQNPADEDDLQIEGGKIELTCPITCKPYEAPLISRKCNHVFDRDGIQNYLQGYTTRDCPQAACSQVVSMRDFVRDPIMELRCKIAKMKESQEQDKRSSQAIDVL
binding (Dpb2-TAP (budding yeast) [3]): binds

B4: Pol2 (1128–2222), C-terminal half (domain or fragment, UniProt P21951 1128-2222)
chain: LDPSLEDLDIRTIIDWGYYRERLGSAIQKIITIPAALQGVSNPVPRVEHPDWLKRKIATKEDKFKQTSLTKFFSKTKNVPTMGKIKDIEDLFEPTVEEDNAKIKIARTTKKKAVSKRKRNQLTNEEDPLVLPSEIPSMDEDYVGWLNYQKIKWKIQARDRKRRDQLFGNTNSSRERSALGSMIRKQAESYANSTWEVLQYKDSGEPGVLEVFVTINGKVQNITFHIPKTIYMKFKSQTMPLQKIKNCLIEKSSASLPNNPKTSNPAGGQLFKITLPESVFLEEKENCTSIFNDENVLGVFEGTITPHQRAIMDLGASVTFRSKAMGALGKGIQQGFEMKDLSMAENERYLSGFSMDIGYLLHFPTSIGYEFFSLFKSWGDTITILVLKPSNQAQEINASSLGQIYKQMFEKKKGKIETYSYLVDIKEDINFEFVYFTDISKLYRRLSQETTKLKEERGLQFLLLLQSPFITKLLGTIRLLNQMPIVKLSLNEVLLPQLNWQPTLLKKLVNHVLSSGSWISHLIKLSQYSNIPICNLRLDSMDYIIDVLYARKLKKENIVLWWNEKAPLPDHGGIQNDFDLNTSWIMNDSEFPKINNSGVYDNVVLDVGVDNLTVNTILTSALINDAEGSDLVNNNMGIDDKDAVINSPSEFVHDAFSNDALNVLRGMLKEWWDEALKENSTADLLVNSLASWVQNPNAKLFDGLLRYHVHNLTKKALLQLVNEFSALGSTIVYADRNQILIKTNKYSPENCYAYSQYMMKAVRTNPMFSYLDLNIKRYWDLLIWMDKFNFSGLACIEIEEKENQDYTAVSQWQLKKFLSPIYQPEFEDWMMIILDSMLKTKQSYLKLNSGTQRPTQIVNVKKQDKEDSVENSLNGFSHLFSKPLMKRVKKLFKNQQEFILDPQYEADYVIPVLPGSHLNVKNPLLELVKSLCHVMLLSKSTILEIRTLRKELLKIFELREFAKVAEFKDPSLSLVVPDFLCEYCFFISDIDFCKAAPESIFSCVRCHKAFNQVLLQEHLIQKLRSDIESYLIQDLRCSRCHKVKRDYMSAHCPCAGAWEGTLPRESIVQKLNVFKQVAKYYGFDILLSCIADLTI
binding [4]: binds

Other lines, results leading:

binding (Smc5-TAP (budding yeast)): binds
Molecule: DNA polymerase epsilon (Pol ε) (from UniProt P21951 1-2222; P24482 1-689; P27344 1-201; Q04603 1-196) (complex)

binding [4]: binds
B2: Wild type Pol2 fragment 2103–2222 (domain or fragment, UniProt P21951 2103-2222)
chain: VPDFLCEYCFFISDIDFCKAAPESIFSCVRCHKAFNQVLLQEHLIQKLRSDIESYLIQDLRCSRCHKVKRDYMSAHCPCAGAWEGTLPRESIVQKLNVFKQVAKYYGFDILLSCIADLTI

binding (Dpb2-TAP (budding yeast) [3]): binds
B3: FLAG-tagged version of Smc5 (protein, UniProt Q08204 1-1093)
chain: MTSLIDLGRYVERTHHGEDTEPRSKRVKIAKPDLSSFQPGSIIKIRLQDFVTYTLTEFNLSPSLNMIIGPNGSGKSTFVCAVCLGLAGKPEYIGRSKKVEDFIKNGQDVSKIEITLKNSPNVTDIEYIDARDETIKITRIITRSKRRSDYLINDYQVSESVVKTLVAQLNIQLDNLCQFLSQERVEEFARLKSVKLLVETIRSIDASLLDVLDELRELQGNEQSLQKDLDFKKAKIVHLRQESDKLRKSVESLRDFQNKKGEIELHSQLLPYVKVKDHKEKLNIYKEEYERAKANLRAILKDKKPFANTKKTLENQVEELTEKCSLKTDEFLKAKEKINEIFEKLNTIRDEVIKKKNQNEYYRGRTKKLQATIISTKEDFLRSQEILAQTHLPEKSVFEDIDIKRKEIINKEGEIRDLISEIDAKANAINHEMRSIQRQAESKTKSLTTTDKIGILNQDQDLKEVRDAVLMVREHPEMKDKILEPPIMTVSAINAQFAAYLAQCVDYNTSKALTVVDSDSYKLFANPILDKFKVNLRELSSADTTPPVPAETVRDLGFEGYLSDFITGDKRVMKMLCQTSKIHTIPVSRRELTPAQIKKLITPRPNGKILFKRIIHGNRLVDIKQSAYGSKQVFPTDVSIKQTNFYQGSIMSNEQKIRIENEIINLKNEYNDRKSTLDALSNQKSGYRHELSELASKNDDINREAHQLNEIRKKYTMRKSTIETLREKLDQLKREARKDVSQKIKDIDDQIQQLLLKQRHLLSKMASSMKSLKNCQKELISTQILQFEAQNMDVSMNDVIGFFNEREADLKSQYEDKKKFVKEMRDTPEFQSWMREIRSYDQDTKEKLNKVAEKYEEEGNFNLSFVQDVLDKLESEIAMVNHDESAVTILDQVTAELRELEHTVPQQSKDLETIKAKLKEDHAVLEPKLDDIVSKISARFARLFNNVGSAGAVRLEKPKDYAEWKIEIMVKFRDNAPLKKLDSHTQSGGERAVSTVLYMIALQEFTSAPFRVVDEINQGMDSRNERIVHKAMVENACAENTSQYFLITPKLLTGLHYHEKMRIHCVMAGSWIPNPSEDPKMIHFGETSNYSFD
